Experimental data from PubChem BioAssay AID540256 (National Center for Advancing Translational Sciences (NCATS), 2011).
Out of some 300,000 compounds screened, about 3,700 (1.2%) were called active. Inconclusive results, whose numbers are uncertain, are shown with a selection of clear calls. Calls come from the whole dose curve; tested in HEK293 cells. Where the call is inconclusive, the potency comes from a doubtful curve fit.

Assay: qHTS for Inhibitors of binding or entry into cells for Lassa Virus; note: nearly all actives have a fitted effect of over 50% in size
Details: Lassa virus pseudotype entry inhibition, cell reporter; activity change, negative = inhibition: at 37.9 µM (top of the series) unless noted
% is set by controls: 0 for no effect and ±100 for the full control effect; potency is the fitted concentration of half-maximal effect.

| SMILES | activity change, negative = inhibition | Potency |
| --- | --- | --- |
| Cc1ccc(CNC(=O)CN(C)S(=O)(=O)c2cccs2)cc1 | inactive: 7.61% |  |
| Cc1ccc2oc(-c3cccc(NC(=O)/C=C/c4cccc([N+](=O)[O-])c4)c3C)nc2c1 | inactive: -0.911% |  |
| CC(c1ccccn1)N(C)C(=O)c1ccc2nc(Cc3cccc(Cl)c3)oc2c1 (stereo not drawn) |  | inconclusive: 14.1 µM [inhibitor, partial curve, poor fit] |
| CC1CC(C)(C)Nc2ccc(OC(=O)c3ccco3)cc21 (stereo not drawn) |  | inconclusive: 35.5 µM [inhibitor, single point] |
| CN1CCN(c2ccc([N+](=O)[O-])cc2C(=O)c2ccc(Br)cc2)CC1 |  | inconclusive: 3.66 µM [inhibitor, partial curve] |
| COc1ccccc1NC(=O)Nc1ncccc1C |  | inconclusive: 35.5 µM [activator, partial curve, poor fit] |
| O=C(NCc1cccnc1)c1cc2nc(-c3cccs3)cc(C(F)(F)Cl)n2n1 |  | inconclusive: 11.2 µM [inhibitor, partial curve, poor fit] |
| CCCn1nnc(NC(=O)c2ccc(F)cc2)n1 |  | inconclusive: 0.562 µM [activator, full curve, poor fit] |
| C/C(=N\OCC(=O)OCC(=O)NCc1ccccc1)c1ccc2c(c1)OCO2 |  | inconclusive: 15.8 µM [inhibitor, partial curve, poor fit] |
| CC(NC(=O)C1CCN(C(=O)c2ccc(F)cc2)CC1)c1ccc(S(N)(=O)=O)cc1 (stereo not drawn) |  | inconclusive: 5.62 µM [activator, single point] |
| O=C(NCCCc1ccccc1)c1ccc(F)cc1 |  | inconclusive: 1.26 µM [activator, partial curve, poor fit] |
| Cc1ccc(C)c(N2CCN(CCCNC(=O)c3ccc4nc(N5CCC(C)CC5)sc4c3)CC2)c1 |  | inconclusive: 5.62 µM [inhibitor, single point] |
| O=C(c1cccc(S(=O)(=O)N2CCN(c3ccccc3)CC2)c1)N1CCCC(C(F)(F)F)C1 (stereo not drawn) |  | inconclusive: 10 µM [inhibitor, partial curve, poor fit] |
| CC1=[N+](C)c2ccc3ccccc3c2C1(C)C |  | inconclusive: 25.9 µM [inhibitor, partial curve] |
| CCOC(=O)N1CCN(C(=O)CSC2=NS(=O)(=O)c3cc(Cl)ccc3N2)CC1 |  | inconclusive: 0.282 µM [inhibitor, full curve, poor fit] |
| Cn1c(SCc2nc3ccccc3[nH]2)nnc1-c1cccnc1 | inactive: -1.78% |  |
| N#C/C(=C/c1ccc(N2CCCCCC2)o1)c1ccc(Cl)cc1 | inactive: -25.1% |  |
| C/C(=N\NC(=O)Cc1cccc2ccccc12)c1ccncc1 |  | inconclusive: 23.1 µM [inhibitor, partial curve, poor fit] |

One compound at a time (already shown).
Cc1ccc(CNC(=O)CN(C)S(=O)(=O)c2cccs2)cc1 is entered as activity change, negative = inhibition: inactive: 7.61%
O=C(NCCCc1ccccc1)c1ccc(F)cc1 is entered as Potency: inconclusive: 1.26 µM [activator, partial curve, poor fit]
